The other results are listed elsewhere or left out. The main result of the screen is listed elsewhere. These columns were measured beside it and carry no call. Compounds called inactive in the main read-out are mostly missing here. The note in brackets gives the kind of curve behind each potency; many fits are weak.
Test: qHTS Assay for Lipid Storage Modulators in Drosophila S3 Cells;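 as to cell number change: cells counted by Cell Tracker Red CMTPX staining in the red channel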
Settings: BODIPY lipid droplet fluorescence, 18-24 h; for cell number change: measured here: cell count max response, cells fed with added oleic acid
Procedure, shortened: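 Laser-scanning cytometry quantifies lipid droplet accumulation (500–530 nm total intensity; droplet/cell object ratio) in oleic acid-fed (400 uM added) Drosophila S3 cells treated with a concentration series. 20 uM Triacsin C defined 100% inhibition.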

[1] = measured here: cell number channel AC50, cells fed with added oleic acid
[2] = measured here: lipid fluorescence (Fed channel) AC50, cells fed with added oleic acid

SMILES | cell number change [%] | AC50 [1] | AC50 [2]
Cc1cc(S(=O)(=O)NCCN2CCOCC2)c(C)s1 | -79.6 | 18.4 µM [falling, single point] | 29.1 µM [falling, single point]
Cc1ccc(NC(=O)CNc2ccc(N3CCOCC3)cc2)cc1S(=O)(=O)N(C)C | -18.9 |  | 
O=C(CNC(=O)c1ccco1)N/N=C/c1cc(Br)ccc1O | 25.7 |  | 29.1 µM [falling, single point]
Cc1ccccc1NC(=O)c1nc[nH]c1C(=O)NCc1ccccc1 | -8.28 |  | 
COc1ccc(CCN(C(=O)C(F)(F)F)C(C(=O)NC2CCCCC2)c2cccs2)cc1 (stereo unspecified) | -30.3 | 14.6 µM [falling, single point] | 
Cc1ccc(CNC(=O)CNS(=O)(=O)c2ccc(Br)s2)cc1 | 17 |  | 29.1 µM [rising, single point]
CCCOc1ccc(N)cc1N | 33.5 | 3.26 µM [rising, full curve] | 4.11 µM [rising, full curve]
Cc1ccc(OC(=O)CCNC(=O)c2ccccc2Cl)c(Br)c1 | -10.4 |  | 
COc1ccc(S(=O)(=O)N2CCN(C(=O)C3CCCO3)CC2)cc1 (stereo unspecified) | 17.8 |  | 29.1 µM [rising, partial curve, poor fit]
O=C(CSc1nc2ccccc2nc1N1CCOCC1)Nc1ccccc1F | -5.19 |  | 1.03 µM [falling, full curve]
Cc1ccc(NC(=O)Cc2ccc(-c3ccccc3)cc2)nc1 | 21.8 |  | 10 µM [rising, partial curve]
Cn1c(OCc2cccnc2)nc2c1c(=O)n(Cc1ccc(F)cc1)c(=O)n2C | 6.9 | 6.51 µM [rising, single point] | 
Cc1cc(OCCn2ccnc2)cc(C)c1Cl | -36.7 | 5.8 µM [falling, full curve, poor fit] | 
O=c1ccc(S(=O)(=O)N2CCC(Cc3ccccc3)CC2)c[nH]1 | 14.4 | 0.259 µM [falling, full curve] | 1.16 µM [falling, full curve]
COc1cc(CCC(=O)OCC(=O)NC(=O)c2ccc(Cl)cc2)cc(OC)c1OC | 41.9 | 29.1 µM [rising, single point] | 
CON=C1CCN(c2ncc(C(F)(F)F)cc2Cl)CC1 | -17.9 |  | 23.1 µM [falling, single point]
COc1cccc2cc(C(=O)C3=C(O)C(=O)N(CCN(C)C)C3c3ccc(F)cc3)oc12 (stereo unspecified) | 11.9 |  | 0.82 µM [rising, full curve, poor fit]
O=C1C=C(c2cccc(Cl)c2O)C[C@@H](c2ccc(Cl)cc2)C1 | 4.36 | 0.517 µM [falling, full curve] | 1.16 µM [falling, full curve]
CCOc1ccc(S(=O)(=O)N2CCN(c3ccc(OC)cc3)CC2)c2cccnc12 | 32.3 | 0.517 µM [rising, full curve, poor fit] | 29.1 µM [falling, single point]
COc1ccc(CNC(=O)CN2C(=O)CC(c3ccccc3)=Nc3ccccc32)cc1 | -16.1 |  | 
Cc1ccc(C)c(S(=O)(=O)Nc2ccc(C(=O)N3CCC3)cc2)c1 | -9.67 |  | 

SMILES | cell number change [%] | AC50 [1] | AC50 [2]
Cc1cccc(NC(=O)c2sc3nc(N)c(C#N)cc3c2N)c1 | -21 |  | 
Cc1cc(C)nc(N2CCC(C(=O)NCCc3ccc(F)cc3)CC2)n1 | -6.05 |  | 4.11 µM [rising, full curve, poor fit]
Cc1nn(CC#N)c(=O)n1-c1ccccc1F | 6.44 |  | 0.164 µM [falling, full curve]
O=C1CC(c2ccccc2)CN1S(=O)(=O)c1ccccc1 (stereo unspecified) |  |  | 2.06 µM [falling, partial curve]
O=C(NCc1ccco1)N1c2ccccc2Sc2ccccc21 | 40.8 | 20.6 µM [rising, single point] | 0.146 µM [falling, single point]
CC1C(=O)C(C)C(c2ccc3c(c2)OCO3)NC1c1ccc2c(c1)OCO2 (stereo unspecified) | -35.7 | 14.6 µM [falling, partial curve, poor fit] | 14.6 µM [falling, partial curve, poor fit]
O=C(N/N=C/c1ccc(N2CCOCC2)cc1)C1COc2ccccc2O1 (stereo unspecified) | -62.7 | 32.6 µM [falling, partial curve, poor fit] | 
COc1ccc(C2SCC(=O)N2c2c(C)n(C)n(-c3ccccc3)c2=O)cc1 (stereo unspecified) | 51.3 | 5.8 µM [rising, full curve, poor fit] | 29.1 µM [rising, single point]
COc1ccc(/C=C(\NC(=O)c2ccc([N+](=O)[O-])cc2)C(=O)NCCCn2ccnc2)cc1 | 7.5 |  | 1.16 µM [falling, single point]
Cc1ccccc1C(=O)Nc1cccc(C(=O)Nc2ccccc2C(=O)O)c1 | -4.5 |  | 29.1 µM [rising, single point]
NC(=O)c1ccc(/C(N)=N/S(=O)(=O)c2cc(C(F)(F)F)cc(C(F)(F)F)c2)cc1 | 21.2 |  | 
Cc1cc(S(=O)(=O)N2CCOCC2)ccc1OCC(=O)NCc1ccccn1 | 12.1 |  | 0.13 µM [falling, full curve]
O=C(CNC(=O)c1ccc(S(=O)(=O)N2CCCC2)cc1)N/N=C/c1ccc(Cl)cc1Cl | 22.7 |  | 3.66 µM [rising, single point]
CN(C)c1nnnn1-c1cccc(Oc2ncc(C(F)(F)F)cc2Cl)c1 | 16.1 |  | 
O=C(Nc1ccccc1C(=O)NCCN1CCOCC1)c1cccc([N+](=O)[O-])c1 | -17.4 | 3.16 µM [falling, single point] | 35.5 µM [falling, single point]
COc1ccc(-c2csc(NC(=O)CS(=O)(=O)c3ccc(F)cc3)n2)cc1OC | 97 | 9.2 µM [rising, partial curve] | 
Cc1sc(NC(=O)c2ccco2)c(CN2CCN(Cc3ccccc3)CC2)c1C |  |  | 29.1 µM [falling, single point]
CCC(CC)C(=O)Nc1cccc(C(=O)Nc2nccs2)c1 | 9.26 |  | 
CC(=O)Oc1ccc(C(=O)Nc2ccccc2C(=O)Nc2cccc(C(=O)O)c2)cc1 | -1.1 |  | 29.1 µM [rising, single point]
CN(C)c1nc(N/N=C/c2c[nH]c3ccccc23)nc(N2CCOCC2)n1 | 15.3 |  | 
C=CCc1c(Cl)nc(C)nc1NCc1ccccc1 |  |  | 6.51 µM [rising, single point]

Copied from the list.
cell number change [%], Cc1nn(CC#N)c(=O)n1-c1ccccc1F reads 6.44
cell number change [%], NC(=O)c1ccc(/C(N)=N/S(=O)(=O)c2cc(C(F)(F)F)cc(C(F)(F)F)c2)cc1 reads 21.2
cell number change [%], Cc1ccccc1C(=O)Nc1cccc(C(=O)Nc2ccccc2C(=O)O)c1 reads -4.5
AC50 [2], Cc1sc(NC(=O)c2ccco2)c(CN2CCN(Cc3ccccc3)CC2)c1C reads 29.1 µM [falling, single point]
cell number change [%], O=C(CNC(=O)c1ccc(S(=O)(=O)N2CCCC2)cc1)N/N=C/c1ccc(Cl)cc1Cl reads 22.7

(cont.)

SMILES | cell number change [%] | AC50 [1] | AC50 [2]
Cc1ccc(/C=C/C(=O)NCCc2c[nH]c3ccccc23)o1 |  |  | 0.731 µM [falling, single point]
NS(=O)(=O)c1ccc(NC(=O)CSc2ccc3ccccc3n2)cc1 |  | 2.06 µM [rising, partial curve, poor fit] | 16.4 µM [falling, single point]
N#Cc1ccc(NC(=S)NC(=O)CCc2ccc(S(=O)(=O)N3CCOCC3)cc2)cc1 | 19 |  | 2.31 µM [falling, single point]
O=Cc1c[nH]c2ccc(S(=O)(=O)N3CCOCC3)cc12 | 2.52 |  | 0.116 µM [rising, full curve, poor fit]
CCN(CC)S(=O)(=O)c1ccc(=O)[nH]c1 | -39.8 | 0.326 µM [falling, full curve] | 0.651 µM [falling, full curve]
CCNC(=S)NN=C1CCC(C(C)(C)C)CC1 (stereo unspecified) | -125 | 20.6 µM [falling, single point] | 
CCOc1cc(NC(=S)NCC2CCCO2)c(OCC)cc1NC(=O)c1cccc(F)c1 (stereo unspecified) |  | 0.184 µM [falling, full curve, poor fit] | 0.164 µM [falling, full curve, poor fit]
O=C(CO/N=C/c1cccc([N+](=O)[O-])c1)Nc1ccc2ccccc2c1 | 44 | 11.6 µM [rising, partial curve, poor fit] | 
O=C(Nc1ccc(F)c([N+](=O)[O-])c1)C1CC(=O)N(Cc2ccccc2)C1 (stereo unspecified) | -4.53 |  | 
O=C(CNC(=O)C1CC(=O)N(c2cccc3ccccc23)C1)Nc1ccccc1Br (stereo unspecified) | -1.2 |  | 
COc1cccc(C(=O)COc2ccc(NC(=O)c3ccccc3)cc2)c1 | -22.4 |  | 2.91 µM [falling, partial curve]
COc1ccc(O)c(C(=O)c2cc(C(=O)NCCc3ccccc3)c(=O)n(CCc3ccccc3)c2)c1 |  | 0.411 µM [falling, full curve, poor fit] | 
COC(=O)c1ccc(C2=NOC(C)(c3sc(-c4ccccc4)nc3C)C2)cc1 (stereo unspecified) | 18.5 |  | 11.6 µM [rising, partial curve]
COc1ccc(S(=O)(=O)N2CCNCC2)cc1 | -9.47 |  | 
CCN1CCN(C(=O)CN2C(=O)COc3ccc(C)cc32)CC1 | 12.8 |  | 5.17 µM [falling, single point]
COc1cc(-c2nc(N)n[nH]2)cc(OC)c1OC | 28 |  | 
Cc1ccc(-c2ccc(/C=N/NC(=O)CN3CCOCC3)o2)cc1[N+](=O)[O-] | -0.993 |  | 
Cc1csc(NC(=O)CSc2nc(=O)[nH]c3c2CCCC3)n1 | -30.1 | 14.6 µM [falling, partial curve, poor fit] | 
CCCCCn1c(=O)[nH]c2cc(C(=O)O)ccc2c1=O | -192 | 2.06 µM [falling, partial curve] | 29.1 µM [falling, single point]
CC(C)N=C(N)N=C(N)Nc1ccc(Cl)cc1 | 36.2 | 13 µM [rising, partial curve, poor fit] | 11.6 µM [rising, partial curve]
